Measured values as given in doi:10.1101/2022.12.13.520306.
No constants are given. Whether binding was seen depends on the method and setting. Binding seen in cells or lysates may run through a third protein. A yes stands for co-enrichment or nearness to the bait. Other partners may have been found. Values belong to the molecule of their own block, whether it stands above or below them.

Chains of the proteins cited; added tags and fusions are not shown.
UniProt Q9UPN9: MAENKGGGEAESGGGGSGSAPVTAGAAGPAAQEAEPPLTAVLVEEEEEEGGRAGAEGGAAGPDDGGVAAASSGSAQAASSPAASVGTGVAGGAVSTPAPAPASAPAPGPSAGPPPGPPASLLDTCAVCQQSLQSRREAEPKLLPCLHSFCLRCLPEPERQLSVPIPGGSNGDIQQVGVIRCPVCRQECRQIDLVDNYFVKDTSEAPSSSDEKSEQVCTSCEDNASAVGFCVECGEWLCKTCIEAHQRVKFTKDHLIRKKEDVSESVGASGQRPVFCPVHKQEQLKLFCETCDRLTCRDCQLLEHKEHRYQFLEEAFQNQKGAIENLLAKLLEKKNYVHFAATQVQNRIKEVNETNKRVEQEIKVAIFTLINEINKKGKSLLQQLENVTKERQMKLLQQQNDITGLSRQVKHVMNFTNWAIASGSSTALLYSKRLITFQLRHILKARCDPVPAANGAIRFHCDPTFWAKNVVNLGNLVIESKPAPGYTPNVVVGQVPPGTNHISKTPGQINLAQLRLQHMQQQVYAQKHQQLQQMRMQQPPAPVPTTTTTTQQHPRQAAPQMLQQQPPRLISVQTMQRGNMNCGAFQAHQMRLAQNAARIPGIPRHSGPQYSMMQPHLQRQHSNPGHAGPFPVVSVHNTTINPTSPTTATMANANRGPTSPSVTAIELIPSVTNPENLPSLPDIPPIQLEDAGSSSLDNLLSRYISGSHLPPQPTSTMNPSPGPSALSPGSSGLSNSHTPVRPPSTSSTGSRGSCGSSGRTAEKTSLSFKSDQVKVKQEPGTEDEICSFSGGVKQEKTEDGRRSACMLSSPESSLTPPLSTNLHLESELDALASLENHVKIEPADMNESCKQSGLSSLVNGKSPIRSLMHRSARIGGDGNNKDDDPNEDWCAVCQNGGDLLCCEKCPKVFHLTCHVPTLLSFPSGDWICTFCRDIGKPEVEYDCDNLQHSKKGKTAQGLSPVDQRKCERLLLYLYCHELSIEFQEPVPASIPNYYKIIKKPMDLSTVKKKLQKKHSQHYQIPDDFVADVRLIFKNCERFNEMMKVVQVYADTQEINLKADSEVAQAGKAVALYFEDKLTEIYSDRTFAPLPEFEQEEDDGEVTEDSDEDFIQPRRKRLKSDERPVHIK
UniProt Q5H9F3: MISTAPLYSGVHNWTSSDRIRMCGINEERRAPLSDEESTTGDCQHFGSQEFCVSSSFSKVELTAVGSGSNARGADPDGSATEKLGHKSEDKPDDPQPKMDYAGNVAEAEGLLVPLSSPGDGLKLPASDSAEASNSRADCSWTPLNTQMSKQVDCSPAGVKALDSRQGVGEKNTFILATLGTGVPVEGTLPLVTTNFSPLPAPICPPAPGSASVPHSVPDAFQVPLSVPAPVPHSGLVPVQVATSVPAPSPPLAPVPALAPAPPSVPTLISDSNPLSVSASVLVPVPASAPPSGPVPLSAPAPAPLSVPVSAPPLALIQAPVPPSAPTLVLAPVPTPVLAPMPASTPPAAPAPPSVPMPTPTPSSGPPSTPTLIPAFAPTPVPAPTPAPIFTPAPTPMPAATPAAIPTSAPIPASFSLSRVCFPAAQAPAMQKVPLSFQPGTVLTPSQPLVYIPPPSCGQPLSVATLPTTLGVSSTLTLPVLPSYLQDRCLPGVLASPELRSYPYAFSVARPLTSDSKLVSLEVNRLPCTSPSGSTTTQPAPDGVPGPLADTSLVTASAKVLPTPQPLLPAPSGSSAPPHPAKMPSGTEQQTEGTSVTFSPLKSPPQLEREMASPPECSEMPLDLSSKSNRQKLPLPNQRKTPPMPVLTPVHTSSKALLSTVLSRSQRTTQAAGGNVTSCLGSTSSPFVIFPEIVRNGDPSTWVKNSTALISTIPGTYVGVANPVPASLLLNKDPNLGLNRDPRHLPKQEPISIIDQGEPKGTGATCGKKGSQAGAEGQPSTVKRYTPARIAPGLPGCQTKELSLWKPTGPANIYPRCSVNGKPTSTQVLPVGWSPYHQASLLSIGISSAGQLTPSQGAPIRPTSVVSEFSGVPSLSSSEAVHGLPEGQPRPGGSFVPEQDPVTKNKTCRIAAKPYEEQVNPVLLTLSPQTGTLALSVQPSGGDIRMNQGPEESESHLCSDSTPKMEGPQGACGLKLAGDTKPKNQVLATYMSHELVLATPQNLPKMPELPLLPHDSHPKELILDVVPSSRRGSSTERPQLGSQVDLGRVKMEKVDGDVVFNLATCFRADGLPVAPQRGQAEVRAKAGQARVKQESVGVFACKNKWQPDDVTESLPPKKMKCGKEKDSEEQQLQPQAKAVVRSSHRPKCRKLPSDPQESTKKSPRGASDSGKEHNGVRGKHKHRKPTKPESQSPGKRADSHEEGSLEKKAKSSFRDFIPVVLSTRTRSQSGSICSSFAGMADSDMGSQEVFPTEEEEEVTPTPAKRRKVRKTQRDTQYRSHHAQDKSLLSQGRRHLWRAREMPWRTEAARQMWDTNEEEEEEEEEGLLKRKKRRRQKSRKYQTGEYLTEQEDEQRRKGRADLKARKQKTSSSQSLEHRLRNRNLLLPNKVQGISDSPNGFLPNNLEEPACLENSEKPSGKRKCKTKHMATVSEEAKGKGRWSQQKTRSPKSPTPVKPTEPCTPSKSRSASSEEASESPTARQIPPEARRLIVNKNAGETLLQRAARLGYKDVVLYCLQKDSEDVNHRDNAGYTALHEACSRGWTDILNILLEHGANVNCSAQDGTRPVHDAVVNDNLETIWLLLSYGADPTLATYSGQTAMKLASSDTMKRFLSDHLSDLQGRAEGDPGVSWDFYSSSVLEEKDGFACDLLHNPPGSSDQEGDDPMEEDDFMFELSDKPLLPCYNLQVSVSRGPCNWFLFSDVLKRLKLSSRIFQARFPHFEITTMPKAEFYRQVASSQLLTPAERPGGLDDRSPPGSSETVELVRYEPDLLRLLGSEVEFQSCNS

How the values were obtained:
TurboID-FOXI1 (human) = target: T1, TurboID-FOXI1 (human) (UniProt Q12951); assay: proximity labelling
T1 sequence: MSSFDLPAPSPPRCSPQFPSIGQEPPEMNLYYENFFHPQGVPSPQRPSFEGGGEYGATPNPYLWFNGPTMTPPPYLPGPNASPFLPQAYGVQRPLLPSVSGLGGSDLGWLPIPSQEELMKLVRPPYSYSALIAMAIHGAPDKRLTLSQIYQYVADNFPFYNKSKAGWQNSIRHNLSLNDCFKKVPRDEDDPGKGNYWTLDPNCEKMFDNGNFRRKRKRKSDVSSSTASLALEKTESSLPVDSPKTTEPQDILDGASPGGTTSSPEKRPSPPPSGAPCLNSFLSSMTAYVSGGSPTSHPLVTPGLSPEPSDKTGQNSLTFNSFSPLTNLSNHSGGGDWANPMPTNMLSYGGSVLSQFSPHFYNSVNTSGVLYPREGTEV

TurboID-FOXD1 (human) = target: T2, TurboID-FOXD1 (human) (UniProt Q16676); assay: proximity labelling
T2 sequence: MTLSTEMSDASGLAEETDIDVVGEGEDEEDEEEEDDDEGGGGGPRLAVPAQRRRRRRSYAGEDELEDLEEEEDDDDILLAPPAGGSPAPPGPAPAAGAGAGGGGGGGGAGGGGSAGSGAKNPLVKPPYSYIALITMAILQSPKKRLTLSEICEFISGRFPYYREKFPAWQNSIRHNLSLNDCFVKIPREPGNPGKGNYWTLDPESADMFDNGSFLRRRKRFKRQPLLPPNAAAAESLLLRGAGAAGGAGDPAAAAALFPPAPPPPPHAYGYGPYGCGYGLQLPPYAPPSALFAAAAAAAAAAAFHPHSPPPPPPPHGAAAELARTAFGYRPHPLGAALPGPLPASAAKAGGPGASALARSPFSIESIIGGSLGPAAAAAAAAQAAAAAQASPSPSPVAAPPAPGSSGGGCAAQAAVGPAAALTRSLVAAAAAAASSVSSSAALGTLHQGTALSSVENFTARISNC

Molecule: TRIM33 (from UniProt Q9UPN9 1-1127)
- binding (TurboID-FOXD1 (human)): binds

B2: PIAS4 (protein, UniProt Q8N2W9 1-510)
chain: MAAELVEAKNMVMSFRVSDLQMLLGFVGRSKSGLKHELVTRALQLVQFDCSPELFKKIKELYETRYAKKNSEPAPQPHRPLDPLTMHSTYDRAGAVPRTPLAGPNIDYPVLYGKYLNGLGRLPAKTLKPEVRLVKLPFFNMLDELLKPTELVPQNNEKLQESPCIFALTPRQVELIRNSRELQPGVKAVQVVLRICYSDTSCPQEDQYPPNIAVKVNHSYCSVPGYYPSNKPGVEPKRPCRPINLTHLMYLSSATNRITVTWGNYGKSYSVALYLVRQLTSSELLQRLKTIGVKHPELCKALVKEKLRLDPDSEIATTGVRVSLICPLVKMRLSVPCRAETCAHLQCFDAVFYLQMNEKKPTWMCPVCDKPAPYDQLIIDGLLSKILSECEDADEIEYLVDGSWCPIRAEKERSCSPQGAILVLGPSDANGLLPAPSVNGSGALGSTGGGGPVGSMENGKPGADVVDLTLDSSSSSEDEEEEEEEEEDEDEEGPRPKRRCPFQKGLVPAC
- binding (TurboID-FOXD1 (human)): binds

Continued, values first:

- binding (TurboID-FOXI1 (human)): binds
Molecule: BCORL1 (from UniProt Q5H9F3 1-1785)

- binding (TurboID-FOXD1 (human)): binds
B1: JUNB (protein, UniProt P17275 1-347)
chain: MCTKMEQPFYHDDSYTATGYGRAPGGLSLHDYKLLKPSLAVNLADPYRSLKAPGARGPGPEGGGGGSYFSGQGSDTGASLKLASSELERLIVPNSNGVITTTPTPPGQYFYPRGGGSGGGAGGAGGGVTEEQEGFADGFVKALDDLHKMNHVTPPNVSLGATGGPPAGPGGVYAGPEPPPVYTNLSSYSPASASSGGAGAAVGTGSSYPTTTISYLPHAPPFAGGHPAQLGLGRGASTFKEEPQTVPEARSRDATPPVSPINMEDQERIKVERKRLRNRLAATKCRKRKLERIARLEDKVKTLKAENAGLSSTAGLLREQVAQLKQKVMTHVSNGCQLLLGVKGHAF
